# From PubChem BioAssay AID652054 (National Center for Advancing Translational Sciences (NCATS), 2013)
# Chains of the proteins cited; added tags and fusions are not shown.
# UniProt P35462, whole entry, looked up: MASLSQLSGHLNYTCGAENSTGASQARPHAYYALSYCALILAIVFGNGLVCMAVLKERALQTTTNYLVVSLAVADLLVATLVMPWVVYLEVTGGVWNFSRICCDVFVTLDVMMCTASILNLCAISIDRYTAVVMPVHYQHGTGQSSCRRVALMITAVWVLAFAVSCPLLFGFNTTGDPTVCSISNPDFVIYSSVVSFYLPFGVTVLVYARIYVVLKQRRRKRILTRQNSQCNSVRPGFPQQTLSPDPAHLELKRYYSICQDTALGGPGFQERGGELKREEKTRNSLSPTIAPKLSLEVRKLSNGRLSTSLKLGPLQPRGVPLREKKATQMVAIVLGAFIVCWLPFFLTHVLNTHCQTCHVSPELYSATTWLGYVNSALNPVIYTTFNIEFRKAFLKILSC
# “And” between values parts separate entries of the source, which are not always exact repeats. Identical values can stand only once. Hit rate of the full screen: of about 360,000 compounds, about 9,100 (2.5%) were called active. Inconclusive results, whose numbers are uncertain, are shown with a selection of clear calls. Rule as the data show it: active = max response below about -50%; inconclusive = no clear call, values can overlap the other calls; inactive = above that.
# Target: D(3) dopamine receptor (Homo sapiens) (UniProt P35462)
# Assay: qHTS of D3 Dopamine Receptor Antagonist: qHTS
# Details: D3R cells, DiscoveRx beta-arrestin luminescence, antagonist mode; active compounds read low
# Summary of the method: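 Cells plated overnight at 1500 cells/well, then exposed to library compounds with dopamine controls for 90 minutes at 37 degrees C. DiscoveRx reagent added for 30–60 minutes at room temperature; luminescence read, quantitative HTS format.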
# % is scaled to controls: 0 for no effect and ±100 for the full control effect.
row,SMILES,"max response, negative = inhibition"
1,Cc1cccc(NC(=O)C2CC(O)CN2C(=O)OCc2ccccc2)c1 (centres undefined),inconclusive: -37.6%
2,CC(=O)c1cccc(S(=O)(=O)NC2CCSc3ccccc32)c1 (centres undefined),inactive: -10.7%
3,CCCCNC(=O)C1C(c2ccc(C(F)(F)F)cc2)=Nc2ccccc2N1C(=O)c1ccc2nc(C)[nH]c2c1 (centres undefined),inconclusive: -31.6%
4,CC(C)Oc1ccc(OCCNC2CCCC2)cc1,inconclusive: -48.9%
5,CCN(C(N)=S)c1ccccc1,inactive: -5.27%
6,Cc1ccccc1NC(=O)NCC1CCN(Cc2cccc(Cl)c2)CC1,inconclusive: -37.4%
7,O=C(NCc1ccco1)c1ccccc1NS(=O)(=O)c1ccc(Br)s1,inconclusive: -30.6%
8,CCOC(=O)C1=C(N)Oc2cc(O)ccc2C1c1ccc([N+](=O)[O-])cc1 (centres undefined),inconclusive: -31.8%
9,C=CCn1c(SCc2ccc3c(c2)OCO3)nc2scc(-c3ccco3)c2c1=O,inconclusive: -35.8%
10,Cc1ccc(NC(=S)N(CCN2CCCCC2)Cc2ccco2)cc1Cl,inconclusive: -38.3%
11,Cc1cccc(C(=O)NN/C=C/C(=O)c2ccccc2)c1,inactive: -19.5%
12,Cc1ccc(NC(=O)C(NC2CCCc3ccccc32)c2ccccc2)c([N+](=O)[O-])c1 (centres undefined),inconclusive: -32.4%
13,O=C(c1cccs1)N1CCCC(N2CCN(c3cccc(C(F)(F)F)c3)CC2)C1 (centres undefined),inconclusive: -48.5%
14,COc1ccc(-c2csc(C(NC(C)=O)c3ccccc3)n2)cn1 (centres undefined),inconclusive: -31.4%
15,COc1cc2[nH]c(=S)nc(NCCCOC(C)C)c2cc1OC,active: -78.3%
16,CC1COCC(C)N1C1=C(Cl)C(=O)c2ccccc2C1=O (centres undefined),active: -58.3%
17,Cc1nn(-c2ccccc2)c2sc(C(=O)O)cc12,inconclusive: -31.6%
19,CC(/C=C/c1ccco1)=N/NC(=O)Cc1cccs1,inconclusive: -39.2%
20,CCOC(=O)c1[nH]ncc1CN1CCCC(C(=O)c2ccc(C(C)(C)C)cc2)C1 (centres undefined),inactive: -2.15%
21,O=C(Nc1ccc2c(c1)OCO2)C1CCN(Cc2cc3c(cc2O)OCO3)CC1,inconclusive: -33.7%
22,CC(NC1=CC(=O)c2cccnc2C1=O)C(O)c1ccccc1 (centres undefined),inconclusive: -43%
23,CC(O)(c1ccc(F)c(F)c1)c1nc(/C=C/c2ccc(C(F)(F)F)cc2)cs1 (centres undefined),inconclusive: -30.6%
24,COc1ccc(NC(=O)NCCCN2CCC(Cc3ccccc3)CC2)cc1,inconclusive: -47.6%
